Measured values: patent US6878698B2, “Anti-inflammatory androstane derivatives” (Glaxo Group Limited, priority 2001, dated 2005)
Some of these results come from one statement about several compounds together. At least one structure is not confirmed: it was looked up by name or label, or the drawing left a doubt.

What follows are molecules tested against T1, glucocorticoid receptor (Homo sapiens, UniProt P04150) (assay: Functional in vitro assay of glucocorticoid agonist activity (A549 cells, NF-κB/ELAM promoter sPAP reporter, TNF stimulated)). Conditions: NF-κB responsive sPAP reporter, compound 1 hour at 37° C., then TNF 10 ng/ml for 16 hours.
T1 construct: A549 cells stably transfected with a reporter gene containing the NF-κB responsive elements from the ELAM gene promoter; endogenous in cells; host or cells: A549 cells stably transfected with the reporter gene only
T1 sequence (P04150 1-777): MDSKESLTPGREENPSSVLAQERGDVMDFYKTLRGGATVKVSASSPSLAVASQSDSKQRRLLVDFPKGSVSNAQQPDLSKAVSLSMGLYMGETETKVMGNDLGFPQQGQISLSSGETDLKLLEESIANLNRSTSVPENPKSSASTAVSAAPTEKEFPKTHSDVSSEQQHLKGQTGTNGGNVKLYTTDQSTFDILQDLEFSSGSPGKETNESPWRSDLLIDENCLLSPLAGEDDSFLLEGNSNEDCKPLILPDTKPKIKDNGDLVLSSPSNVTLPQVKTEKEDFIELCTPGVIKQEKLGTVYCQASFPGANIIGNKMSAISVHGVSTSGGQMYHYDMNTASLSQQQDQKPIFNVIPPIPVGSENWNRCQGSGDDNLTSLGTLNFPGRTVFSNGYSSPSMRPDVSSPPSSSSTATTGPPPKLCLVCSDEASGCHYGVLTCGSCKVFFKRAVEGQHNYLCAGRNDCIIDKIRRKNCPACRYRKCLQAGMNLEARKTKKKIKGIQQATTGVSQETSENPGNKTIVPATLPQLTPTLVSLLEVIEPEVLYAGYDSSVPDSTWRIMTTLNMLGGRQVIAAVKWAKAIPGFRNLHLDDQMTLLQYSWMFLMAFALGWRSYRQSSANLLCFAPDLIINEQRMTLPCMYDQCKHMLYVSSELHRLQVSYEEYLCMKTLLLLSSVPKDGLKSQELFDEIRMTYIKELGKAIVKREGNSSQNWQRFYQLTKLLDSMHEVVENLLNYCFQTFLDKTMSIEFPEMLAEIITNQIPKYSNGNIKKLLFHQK
Assay type: cell-based
Description: Pharmacological activity was assessed in a functional in vitro assay of glucocorticoid agonist activity which is generally predictive of anti-inflammatory or anti-allergic activity in vivo.
A549 cells stably transfected with a reporter gene containing the NF-κB responsive elements from the ELAM gene promoter coupled to sPAP (secreted alkaline phosphatase) were treated with test compounds at appropriate doses for 1 hour at 37° C. […] Dose response curves were constructed from which EC50 values were estimated.

| Molecule | EC50 |
| --- | --- |
| CC1CC2C3CC(F)C4=CC(=O)C=CC4(C)C3(F)C(O)CC2(C)C1(OC(=O)c1cnsn1)C(=O)SCF (stereo not drawn) [Example 35, 6α,9α-Difluoro-11β-hydroxy-16α-methyl-3-oxo-17α[(1,2,5-thiadiazole-3-carbonyl)oxy]-androsta-1,4-diene-17β-carbothioic acid S-fluoromethyl ester] | < 1 nM |
| Cc1nnsc1C(=O)OC1(C(=O)SCF)C(C)CC2C3CC(F)C4=CC(=O)C=CC4(C)C3(F)C(O)CC21C (stereo not drawn) [Example 12, 6α,9α-Difluoro-11β-hydroxy-16α-methyl-17α-[(4-methyl-1,2,3-thiadiazole-5-carbonyl)oxy]-3-oxo-androsta-1,4-diene-17β-carbothioic acid S-fluoromethyl ester] | < 1 nM |
| CC1CC2C3CC(F)C4=CC(=O)C=CC4(C)C3(F)C(O)CC2(C)C1(OC(=O)c1sccc1Cl)C(=O)SCF (stereo not drawn) [Example 17, 17α-[(3-Chlorothiophene-2-carbonyl)oxy]-6α,9α-difluoro-11β-hydroxy-16α-methyl-3-oxo-androsta-1,4-diene-17β-carbothioic acid S-fluoromethyl ester] | < 1 nM |
| Cc1nc(C(=O)OC2(C(=O)SCF)C(C)CC3C4CC(F)C5=CC(=O)C=CC5(C)C4(F)C(O)CC32C)cs1 (stereo not drawn) [Example 30, 6α,9α-Difluoro-11β-hydroxy-16α-methyl-17α-[(2-methyl-1,3-thiazole-4-carbonyl)oxy]-3-oxo-androsta-1,4-diene-17β-carbothioic acid S-fluoromethyl ester] | < 1 nM |
| Cc1ccc(C(=O)OC2(C(=O)SCF)C(C)CC3C4CC(F)C5=CC(=O)C=CC5(C)C4(F)C(O)CC32C)s1 (stereo not drawn) [Example 38, 6α,9α-Difluoro-11β-hydroxy-16α-methyl-17α-[(5-methylthiophene-2-carbonyl)oxy]-3-oxo-androsta-1,4-diene-17β-carbothioic acid S-fluoromethyl ester] | < 1 nM |
| 6α,9α-Difluoro-17α-[(2,5-dimethylfuran-3-carbonyl)oxy]-11β-hydroxy-16α-methyl-3-oxo-androsta-1,4-diene-17β-carbothioic acid S-fluoromethyl ester [Example 16] | < 1 nM |
| 6α,9α-Difluoro-11β-hydroxy-16α-methyl-3-oxo-17α-[(1H-pyrrole-2-carbonyl)oxy]-androsta-1,4-diene-17β-carbothioic acid S-fluoromethyl ester [Example 33] | < 1 nM |
| CC1CC2C3CC(F)C4=CC(=O)C=CC4(C)C3(F)C(O)CC2(C)C1(OC(=O)c1ccon1)C(=O)SCF (stereo not drawn) [Example 28, 6α,9α-Difluoro-11β-hydroxy-17α-[(isoxazole-3-carbonyl)oxy]-16α-methyl-3-oxo-androsta-1,4-diene-17β-carbothioic acid S-fluoromethyl ester] | < 1 nM |
| CC1CC2C3CC(F)C4=CC(=O)C=CC4(C)C3(F)C(O)CC2(C)C1(OC(=O)c1ccsn1)C(=O)SCF (stereo not drawn) [Example 36, 6α,9α-Difluoro-11β-hydroxy-17α-[(isothiazole-3-carbonyl)oxy]-16α-methyl-3-oxo-androsta-1,4-diene-17β-carbothioic acid S-fluoromethyl ester] | < 1 nM |
| CC1CC2C3CC(F)C4=CC(=O)C=CC4(C)C3(F)C(O)CC2(C)C1(OC(=O)c1ccno1)C(=O)SCF (stereo not drawn) [Example 8, 6α,9α-Difluoro-11α-hydroxy-17α-[(isoxazole-5-carbonyl)oxy]-16α-methyl-3-oxo-androsta-1,4-diene-17β-carbothioic acid S-fluoromethyl ester] | < 1 nM |
| CC1CC2C3CC(F)C4=CC(=O)C=CC4(C)C3(F)C(O)CC2(C)C1(OC(=O)c1cnns1)C(=O)SCF (stereo not drawn) [Example 27, 6α,9α-Difluoro-11β-hydroxy-16α-methyl-3-oxo-17α-[(1,2,3-thiadiazole-5-carbonyl)oxy]-androsta-1,4-diene-17β-carbothioic acid S-fluoromethyl ester] | < 1 nM |
| COc1c(C(=O)OC2(C(=O)SCF)C(C)CC3C4CC(F)C5=CC(=O)C=CC5(C)C4(F)C(O)CC32C)csc1Cl (stereo not drawn) [Example 11, 17α-[(5-Chloro-4-methoxy-thiophene-3-carbonyl)oxy]-6α,9α-difluoro-11β-hydroxy-16α-methyl-3-oxo-androsta-1,4-diene-17β-carbothioic acid S-fluoromethyl ester] | < 1 nM |
| CCOc1ccsc1C(=O)OC1(C(=O)SCF)C(C)CC2C3CC(F)C4=CC(=O)C=CC4(C)C3(F)C(O)CC21C (stereo not drawn) [Example 31, 6α,9α-Difluoro-17α-[(3-ethoxy-thiophene-2-carbonyl)oxy]-11β-hydroxy-16α-methyl-3-oxo-androsta-1,4-diene-17β-carbothioic acid S-fluoromethyl ester] | < 1 nM |
| CC1CC2C3CC(F)C4=CC(=O)C=CC4(C)C3(F)C(O)CC2(C)C1(OC(=O)c1ccc(Br)o1)C(=O)SCF (stereo not drawn) [Example 15, 17α-[(5-Bromofuran-2-carbonyl)oxy]-6α,9α-difluoro-11β-hydroxy-16α-methyl-3-oxo-androsta-1,4-diene-17β-carbothioic acid S-fluoromethyl ester] | < 1 nM |
| CC1CC2C3CCC4=CC(=O)C=CC4(C)C3(F)C(O)CC2(C)C1(OC(=O)c1ccco1)C(=O)SCF (stereo not drawn) [Example 6, 9α-Fluoro-17α-[(2-furanylcarbonyl)oxy]-11β-hydroxy-16β-methyl-3-oxo-androsta-1,4-diene-17β-carbothioic acid S-fluoromethyl ester] | < 1 nM |
| CC1CC2C3CC(F)C4=CC(=O)C=CC4(C)C3(F)C(O)CC2(C)C1(OC(=O)c1csnn1)C(=O)SCF (stereo not drawn) [Example 32, 6α,9α-Difluoro-11β-hydroxy-16α-methyl-3-oxo-17α-[(1,2,3-thiadiazole-4-carbonyl)oxy]-androsta-1,4-diene-17β-carbothioic acid S-fluoromethyl ester] | < 1 nM |
| Cc1ncsc1C(=O)OC1(C(=O)SCF)C(C)CC2C3CC(F)C4=CC(=O)C=CC4(C)C3(F)C(O)CC21C (stereo not drawn) [Example 41, 6α,9α-Difluoro-11β-hydroxy-16α-methyl-17α-[(4-methyl-1,3-thiazole-5-carbonyl)oxy]-3-oxo-androsta-1,4-diene-17β-carbothioic acid S-fluoromethyl ester] | < 1 nM |
| 6α,9α-Difluoro-11β-hydroxy-16α-methyl-3-oxo-17α-[(1,3-thiazole-4-carbonyl)oxy]-androsta-1,4-diene-17β-carbothioic acid S-fluoromethyl ester [Example 22] | < 1 nM |
| CC1CC2C3CC(F)C4=CC(=O)C=CC4(C)C3(F)C(O)CC2(C)C1(OC(=O)c1ccsc1)C(=O)SCF (stereo not drawn) [Example 4, 6α,9α-Difluoro-11β-hydroxy-16α-methyl-3-oxo-17α-[(3-thienylcarbonyl)oxy]-androsta-1,4-diene-17β-carbothioic acid S-fluoromethyl ester] | < 1 nM |
| CSC(=O)C1(OC(=O)c2ccco2)C(C)CC2C3CC(F)C4=CC(=O)C=CC4(C)C3(F)C(O)CC21C (stereo not drawn) [Example 39, 6α,9α-Difluoro-17α-[(2-furanylcarbonyl)oxy]-11β-hydroxy-16α-methyl-3-oxo-androsta-1,4-diene-17β-carbothioic acid S-methyl ester] | < 1 nM |
| CC1CC2C3CC(F)C4=CC(=O)C=CC4(C)C3(F)C(O)CC2(C)C1(OC(=O)c1ccccc1)C(=O)SCF (stereo not drawn) [Example 5, 17α-(Benzoyl)oxy-6α,9α-Difluoro-11β-hydroxy-16α-methyl-3-oxo-androsta-1,4-diene-17-carbothioic acid S-fluoromethyl ester] | < 1 nM |
| Cc1cc(C(=O)OC2(C(=O)SCF)C(C)CC3C4CC(F)C5=CC(=O)C=CC5(C)C4(F)C(O)CC32C)no1 (stereo not drawn) [Example 24, 6α,9α-Difluoro-11β-hydroxy-16α-methyl-17α-[(5-methylisoxazole-3-carbonyl)oxy]-3-oxo-androsta-1,4-diene-17β-carbothioic acid S-fluoromethyl ester] | < 1 nM |
| CC1CC2C3CC(F)C4=CC(=O)C=CC4(C)C3(F)C(O)CC2(C)C1(OC(=O)c1ccns1)C(=O)SCF (stereo not drawn) [Example 37, 6α,9α-Difluoro-11β-hydroxy-17α-[(isothiazole-5-carbonyl)oxy]-16α-methyl-3-oxo-androsta-1,4-diene-17β-carbothioic acid S-fluoromethyl ester] | < 1 nM |
| Cc1occc1C(=O)OC1(C(=O)SCF)C(C)CC2C3CC(F)C4=CC(=O)C=CC4(C)C3(F)C(O)CC21C (stereo not drawn) [Example 18, 6α,9α-Difluoro-11β-hydroxy-16α-methyl-17α-[(2-methylfuran-3-carbonyl)oxy]-3-oxo-androsta-1,4-diene-17β-carbothioic acid S-fluoromethyl ester] | < 1 nM |
